“And” between values parts separate entries of the source, which are not always exact repeats. Identical values can stand only once. Screen size: about 360,000 compounds; about 10,000 (2.8%) were called active. Inconclusive results, whose numbers are uncertain, are shown with a selection of clear calls. Calls come from the whole dose curve; as a rule, active = well fitted inhibition curve with a large enough effect; inconclusive = small, poorly fitted or top-dose-only effect; inactive = flat fitted curve, though single readings scatter. Potencies beside an inconclusive call are fits to weak or partial responses and may not hold up.
molecular target: Serine/threonine-protein kinase PLK1 (Homo sapiens) (UniProt P53350); assay: qHTS for Inhibitors of PLK1-PDB (polo-like kinase 1 - polo-box domain): Primary Screen; conditions: Plk1 PBD binding of FITC phosphopeptide, fluorescence polarization; note: nearly all actives have a fitted effect of over 65% in size; for max response, negative = inhibition: series mostly up to about 57 µM
% is set by controls: 0 for no effect and ±100 for the full control effect; potency is the fitted concentration of half-maximal effect.

Sequences of proteins named here, by UniProt entry; tags and fusion partners are left off.
UniProt P53350, whole entry, looked up: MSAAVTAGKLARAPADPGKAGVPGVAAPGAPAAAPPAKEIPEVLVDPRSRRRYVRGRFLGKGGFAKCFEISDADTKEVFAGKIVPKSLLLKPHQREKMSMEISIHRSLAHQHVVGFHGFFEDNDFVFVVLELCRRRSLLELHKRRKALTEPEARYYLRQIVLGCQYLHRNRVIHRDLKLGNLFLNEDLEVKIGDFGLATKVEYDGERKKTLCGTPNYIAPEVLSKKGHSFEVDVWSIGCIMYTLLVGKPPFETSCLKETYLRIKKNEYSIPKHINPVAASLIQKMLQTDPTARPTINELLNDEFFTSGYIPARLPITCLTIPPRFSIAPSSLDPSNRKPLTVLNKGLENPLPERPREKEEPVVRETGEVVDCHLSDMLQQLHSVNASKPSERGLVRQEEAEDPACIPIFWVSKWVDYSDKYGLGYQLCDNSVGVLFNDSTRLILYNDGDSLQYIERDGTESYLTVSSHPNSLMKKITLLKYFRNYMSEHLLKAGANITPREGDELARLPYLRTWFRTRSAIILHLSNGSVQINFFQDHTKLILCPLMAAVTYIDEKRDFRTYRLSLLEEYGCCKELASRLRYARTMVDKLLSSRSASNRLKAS

Structure (SMILES)	Potency	max response, negative = inhibition
Cc1ccc(S(=O)(=O)N2CCN(C(=O)CSc3nc4ccccc4c(=O)[nH]3)CC2)c(C)c1	inconclusive: 26.7 µM [inhibitor, single point]	
O=C1/C(=C2\C(=O)N(Cc3ccc(F)cc3)c3ccccc32)SC(=S)N1CCS(=O)(=O)O	active: 18.9 µM and active: 21.2 µM	
Cc1nnc(SCc2ccccc2C#N)n1-c1ccccc1	inconclusive: 23.8 µM [inhibitor, single point]	
CCc1ccc2nc(SCC(=O)N3CC(=O)Nc4ccccc43)c(C#N)cc2c1	active: 21.2 µM	
S=C(NCCOCCOCCNC(=S)Nc1ccccc1)Nc1ccccc1		inactive: -5.18%
COc1ccc2c(c1)c(/C=C/c1cc[n+](C)cc1)cn2C		inactive: 32.9%
CC(Oc1ccc(Cl)cc1Cl)C(=O)NCCCn1ccnc1 (stereo not given)	active: 23.8 µM	
COc1ccc(C(=O)N2CCCC(N3CCN(c4ccccc4F)CC3)C2)c(OC)n1 (stereo not given)	active: 29.9 µM	
CC12CCC(c3c(C(=O)O)nn(-c4ccc(F)cc4)c31)C2(C)C (stereo not given)	inconclusive: 29.9 µM [inhibitor, single point]	
COc1ccc2[nH]cc(CCNC(=O)C3CCCO3)c2c1 (stereo not given)	inconclusive: 37.7 µM [inhibitor, single point]	
COc1ccc(C2CC(c3cccs3)=NN2C(=O)CCC(=O)O)cc1OC (stereo not given)	active: 23.8 µM	
CCn1c(SCC(=O)N2CCCC2)nnc1-c1ccc(N)cc1		inactive: -26.7%
Oc1ccc2oc3c(c2c1C=NCc1ccncc1)CCCC3		inconclusive: -30.4% [inhibitor]
O=[N+]([O-])c1ccccc1S(=O)(=O)n1cnc2ccccc21	inconclusive: 29.9 µM [inhibitor, partial curve]	
Oc1ccc2ccccc2c1/C=N/c1nc2c(s1)CCCC2	active: 13.4 µM	
Cc1cc(NC(=O)CSc2nc(-c3ccc(F)cc3)cs2)no1	inconclusive: 8.44 µM [inhibitor, single point]	
Cc1occc1C(=O)Nc1ccc(S(N)(=O)=O)cc1	active: 21.2 µM	
CCCNC(=O)C1(C)CCCN(CCC(=O)c2ccccc2)C1 (stereo not given)	inconclusive: 21.2 µM [inhibitor, partial curve]	
Oc1ccc(Br)cc1-c1cc(-c2ccccc2Cl)[nH]n1	active: 23.8 µM	
COc1ccc(NC(=O)CSc2nc(C)cc(C)n2)c([N+](=O)[O-])c1		inactive: 1.76%
c1ccc(Cc2nnc3sc(C4COc5ccccc5O4)nn23)cc1 (stereo not given)	active: 15 µM	
COc1cccc(CNC(=O)CCS(=O)(=O)c2ccc3c(c2)NC(=O)CS3)c1	inconclusive: 21.2 µM [inhibitor, partial curve]	
COc1ccc(CCN2C(=O)c3ccccc3C2(O)c2ncc[nH]2)cc1OC (stereo not given)	inconclusive: 29.9 µM [inhibitor, partial curve]	
CCN(c1c(C)n(C)n(-c2ccccc2)c1=O)S(C)(=O)=O	inconclusive: 26.7 µM [inhibitor, single point]	
CCOC(=O)N/N=C\c1cccc(OC)c1	inconclusive: 29.9 µM [inhibitor, partial curve]	

Structure (SMILES)	Potency	max response, negative = inhibition
O=C(Nc1nnc(C2CC2)s1)C1CCCCC1		inactive: -6.73%
CC(=O)Nc1ccc(Nc2nc3ccccc3n3cnnc23)cc1		inactive: 4.65%
CC(Sc1ccc2nnc(-c3ccc(F)cc3)n2n1)C(=O)O (stereo not given)	active: 26.7 µM	
CNC(=O)NC(=O)CSc1nnc(-c2ccc(F)cc2)n1CC1CCCO1 (stereo not given)	inconclusive: 29.9 µM [inhibitor, single point]	
Fc1cccc(Cc2c(-c3cccc(Br)c3)nc3ccc(Br)cn23)c1	inconclusive: 33.6 µM [inhibitor, single point]	
CCc1nnc(NC(=O)C2CC(=O)N(CCc3ccccc3)C2)s1 (stereo not given)	inconclusive: 21.2 µM [inhibitor, partial curve]	
Nc1[nH]c(=O)ncc1F	inconclusive: 29.9 µM [inhibitor, single point]	
NS(=O)(=O)c1cc(C(=O)OCC(=O)c2ccc3c(c2)OCCO3)ccc1Cl	active: 29.9 µM	
CCOc1ccc(-c2cc(CCCC(=O)NCc3cccnc3)no2)cc1		inactive: -14.3%
Cc1oncc1C(=O)Nc1cccc(C#N)c1		inactive: -6.61%
CCN(CC)c1ccc(NC(=O)CN2C(=O)CC(C)(C)S(=O)(=O)c3ccccc32)c(C)c1	inconclusive: 29.9 µM [inhibitor, single point]	
O=c1cc2oc3cc(O)c(O)cc3c(-c3ccccc3[N+](=O)[O-])c-2cc1O		inactive: -24.1%
CC1(C)CC(=O)C2=C(C1)Nc1[nH]c(=S)[nH]c(=O)c1C2c1ccccc1 (stereo not given)	inconclusive: 23.8 µM [inhibitor, partial curve]	
Cc1nnc(SCc2nnc(-c3cccs3)o2)n1C1CCCCC1	inconclusive: 4.74 µM [inhibitor, single point]	
O=C(NC1CCCCC1)c1sc(=S)n2c1[nH]c(=O)c1ccccc12	active: 23.8 µM	
CCOc1cc(CNCCc2c[nH]c3ccccc23)cc(Cl)c1OCC(N)=O		inactive: 1.86%
Cc1cccc(C(=O)C2CCN(S(=O)(=O)c3cccc(C(=O)O)c3)CC2)c1		inactive: -14.1%
Cc1nc(NC(=O)C(Cl)Cl)sc1C(=O)N(C)C		inconclusive: -30.9% [inhibitor]
O=C(Nc1ccc(S(=O)(=O)N2CCCC2)cc1)C1CC(=O)N(CCc2ccccc2)C1 (stereo not given)		inactive: -6.13%
Cc1ccc(C)c(NC(=S)NC(NC(=O)Cc2ccccc2)C(Cl)(Cl)Cl)c1 (stereo not given)	inconclusive: 21.2 µM [inhibitor, partial curve]	
COc1ccc(C(=O)/C=C2/C(=O)Nc3ccccc32)c(OC)c1	inconclusive: 23.8 µM [inhibitor, partial curve]	
NC(=O)/C(=C/c1ccco1)NC(=O)c1ccc(Br)o1		inactive: -15.1%
CN(Cc1ccccc1)C(=C(Cl)Cl)C(=C1NCCN1)[N+](=O)[O-]	inconclusive: 37.7 µM [inhibitor, single point]	
CCc1nc2ccc(C(=O)N3CCN(S(=O)(=O)CC)CC3)cn2c1N(CC)C(=O)NCCc1ccccc1		inactive: 0.56%
CCc1cc(Cl)c(OC)c(C(=O)NC[C@@H]2CCCN2CC)c1O		inactive: -1.01% and inactive: -13.4%

Structure (SMILES)	Potency	max response, negative = inhibition
O=C(Nc1nc(-c2ccc(Cl)s2)cs1)c1cccs1	inconclusive: 29.9 µM [inhibitor, partial curve]	
CCCN(C1CCS(=O)(=O)C1)S(=O)(=O)c1cc(OC)ccc1OC (stereo not given)	inconclusive: 33.6 µM [inhibitor, partial curve]	
O=C(Nc1ccc(F)cc1F)c1noc2c1CCC2	inconclusive: 21.2 µM [inhibitor, partial curve]	
Cc1ccccc1-n1sc2cc(F)ccc2c1=O	active: 1.19 µM	
CC(=O)Nc1ccc(S(=O)(=O)Nc2nc3ccccc3nc2Nc2ccc(C(=O)O)c(O)c2)cc1	inconclusive: 29.9 µM [inhibitor, partial curve]	
Cc1nc(NC(=O)c2ccccc2)sc1-c1csc(NCc2ccco2)n1	inconclusive: 29.9 µM [inhibitor, partial curve]	
Cc1n(Cc2ccccc2)c2ccccc2[n+]1Cc1ccccc1	inconclusive: 42.3 µM [inhibitor, partial curve]	
CSc1nncc(/C(C)=N/O)n1		inactive: -13%
CN1C(=O)/C(=C/c2cccc([N+](=O)[O-])c2)C(=O)N1c1ccccc1	active: 2.38 µM	
CCOC(=O)C1(CCCc2ccccc2)CCN(C(=O)CCc2cnccn2)CC1		inactive: -2.66%
COc1ccc(/C=N/c2oc(-c3ccccc3)cc2C#N)cc1OC	inconclusive: 37.7 µM [inhibitor, single point]	
COc1cccc(OC)c1-c1nn2c(-c3ccccc3Cl)nnc2s1	inconclusive: 23.8 µM [inhibitor, partial curve]	
O=C(Nc1ccc(Oc2ccccc2)nc1)C1CCN(Cc2ccccc2)CC1		inactive: -4.88%
Cc1ccc(-n2c(C)cc(C(=O)NS(=O)(=O)c3ccc(C)cc3)c2C)cc1		inactive: -7.25%
COc1cc(C(=O)Nc2nccs2)c(Br)c(OC)c1OC		inactive: -6.4%
COCCNC(=S)NNc1ccccc1[N+](=O)[O-]	active: 15 µM	
Cc1[nH]c2ccc(OC(F)(F)F)cc2c1CCN1C(=O)c2ccc(C(=O)O)cc2C1=O	inconclusive: 37.7 µM [inhibitor, single point]	
COc1ccc(N(C(=O)c2cc3ccccc3oc2=O)C2C=CS(=O)(=O)C2)cc1 (stereo not given)	inconclusive: 26.7 µM [inhibitor, single point]	
Cc1nc2c(F)c(F)c(C(F)(F)F)c(F)c2[nH]1		inactive: -10.7%
COc1ccc2c(c1)CCc1sc(NC(=O)c3ccco3)nc1-2	inconclusive: 23.8 µM [inhibitor, partial curve]	
CC(=O)C1=C(O)C(CSCc2ccccc2)N(C)C1=O (stereo not given)	inconclusive: 29.9 µM [inhibitor, partial curve]	
Cc1nc2ccc(NC(=O)c3ccccc3)cc2s1	active: 21.2 µM	
CCc1cc2c(=O)[nH]c(-c3ccncc3)nc2s1	inconclusive: 29.9 µM [inhibitor, partial curve]	
CCCn1c(COc2ccccc2)nc2ccccc21		inactive: -15%
O=C(NC(=S)Nc1ccccc1N1CCCC1)c1ccc(-c2cccc([N+](=O)[O-])c2)o1		inconclusive: -31% [inhibitor]

Reference: PubChem BioAssay AID720504 (National Center for Advancing Translational Sciences (NCATS), 2013)
